Data as given in patent US20170191032A1, “IDENTIFICATION AND ISOLATION OF NEURAL STEM CELLS AND NEUROSPHERE INITIATING CELLS” (The Board of Regents of the University of Texas System, priority 2014, published 2017).
At least one structure is not confirmed: it was looked up by name or label, or the drawing left a doubt.

Experiments:
SVZ cells = assay: TMZ regeneration assay: total and dividing (BrdU) SVZ cells; type: in vivo, mouse; details: after serial TMZ treatment (two rounds 12 days apart)
Excerpt: (§1) All data represent mean ±s.d.

NICs = assay: TMZ regeneration assay: neurosphere-initiating cells (NICs); type: in vivo, mouse; details: after serial TMZ treatment (two rounds 12 days apart)
Excerpt: as §1
The cell suspension was then filtered through a 45-micron mesh, counted on a hemocytometer, and added to culture or processed for flow cytometry. […] For adherent colony formation, Tg(Ubc-GFP) SVZ cells were co-cultured with 80-90% confluent nontransgenic neonatal SVZ-derived astrocytes isolated and passaged twice prior to the experiment. GFP fluorescence was used to assess colony formation after 12-20 days in culture.

pre-GEPCOT cells = assay: TMZ regeneration assay: pre-GEPCOT cells per SVZ by flow cytometry; type: in vivo, mouse; details: for depletion of pre-GEPCOT cells: two rounds of TMZ 12 days apart
GEPCOT cells = assay: TMZ regeneration assay: GEPCOT cells per SVZ by flow cytometry

**Q.** What does the source list for Cn1nnc2c(C(N)=O)ncn2c1=O [TMZ, temozolomide]?
**A.** recovery of dividing SVZ cells (SVZ cells): little recovery; recovery of NICs (NICs): little recovery; numbers of pre-GEPCOT cells in the SVZ (pre-GEPCOT cells; single round of TMZ (TMZ 1x)): not affected; depletion of pre-GEPCOT cells (pre-GEPCOT cells; 3 days after the second round): not depleted; depletion of pre-GEPCOT cells (pre-GEPCOT cells; 90 days after the second round): depleted; recovery of GEPCOTs (GEPCOT cells; after serial TMZ treatment (two rounds 12 days apart)): little recovery; change in Ascl1CreERT2-labeled GEPCOTs (GEPCOT cells; between 3 and 35 days after TMZ): did not significantly change
